{
  "sequences": {"note": "Amino acid sequences for entries named in this document (tags omitted).", "UniProt P51149": "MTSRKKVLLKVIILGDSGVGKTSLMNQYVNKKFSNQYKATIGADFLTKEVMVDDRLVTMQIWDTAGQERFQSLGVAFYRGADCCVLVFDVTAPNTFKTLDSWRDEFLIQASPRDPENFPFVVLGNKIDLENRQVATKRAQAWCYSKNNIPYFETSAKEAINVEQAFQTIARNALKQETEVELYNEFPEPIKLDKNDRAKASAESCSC"},
  "source": "paper PMC12223778",
  "target": "T1, Sestrin2 (SESN2), stably overexpressed in HK-2 cells (LV-SESN2) (UniProt P58004)",
  "T1 sequence": "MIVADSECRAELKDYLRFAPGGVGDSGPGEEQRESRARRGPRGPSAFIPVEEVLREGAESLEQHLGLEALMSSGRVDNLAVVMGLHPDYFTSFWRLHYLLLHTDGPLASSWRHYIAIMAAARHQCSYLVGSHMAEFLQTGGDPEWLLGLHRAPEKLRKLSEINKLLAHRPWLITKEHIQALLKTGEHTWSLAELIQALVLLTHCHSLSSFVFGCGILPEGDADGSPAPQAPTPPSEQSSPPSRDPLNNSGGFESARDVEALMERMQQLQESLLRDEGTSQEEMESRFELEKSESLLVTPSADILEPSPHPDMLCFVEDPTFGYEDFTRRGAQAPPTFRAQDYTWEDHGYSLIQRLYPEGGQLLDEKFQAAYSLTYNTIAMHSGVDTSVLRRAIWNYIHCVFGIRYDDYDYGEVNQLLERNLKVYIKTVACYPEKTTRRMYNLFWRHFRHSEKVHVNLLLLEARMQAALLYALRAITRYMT",
  "assay": "affinity purification with mass spectrometry; anti-SESN2 antibody (IgG as control) on protein A magnetic beads, incubated with whole-cell lysates of SESN2-overexpressing HK-2 cells overnight at 4 °C; SDS-PAGE, Coomassie blue, MS",
  "note": "Results are given in words; binding and its absence hold for the method and conditions named. In cells and extracts the contact can be indirect. A yes stands for co-enrichment or nearness to the bait. Other partners may have been found.",
  "data": [
    {"substance": "Rab-7a (from UniProt P51149 1-207)", "values": [
      {"measurement": "binding", "result": "binds"}
    ]}
  ]
}
